Assay [1] addresses TNF receptor 2 (TNF-R2) wild type, pcDNAI-hTNF-R2 (human). The assay is described as follows: co-immunoprecipitation of TNF-R2 with utr-1 from HEK293T lysates (FIG. 6).
The target is the same in assay [2]. Briefly: co-immunoprecipitation of TNF-R2 with utr-1 from HEK293T lysates with 0, 0.25, 1 or 2 µg E-TRAF2 plasmid; anti-cMyc and anti-E Western blots.

These are yes or no findings as the source states them, for the method shown. Binding seen in cells or lysates may run through a third protein. Binding can be weak; no strength is given. Tags and fused reporters may be left off the sequences shown.

B1: E-tagged murine TRAF2 (pEF6-E-mTRAF2) (protein, UniProt P39429 2-501, looked up, not shown: small tags and cut ends)
chain: AAASVTSPGSLELLQPGFSKTLLGTRLEAKYLCSACKNILRRPFQAQCGHRYCSFCLTSILSSGPQNCAACVYEGLYEEGISILESSSAFPDNAARREVESLPAVCPNDGCTWKGTLKEYESCHEGLCPFLLTECPACKGLVRLSEKEHHTEQECPKRSLSCQHCRAPCSHVDLEVHYEVCPKFPLTCDGCGKKKIPRETFQDHVRACSKCRVLCRFHTVGCSEMVETENLQDHELQRLREHLALLLSSFLEAQASPGTLNQVGPELLQRCQILEQKIATFENIVCVLNREVERVAVTAEACSRQHRLDQDKIEALSNKVQQLERSIGLKDLAMADLEQKVSELEVSTYDGVFIWKISDFTRKRQEAVAGRTPAIFSPAFYTSRYGYKMCLRVYLNGDGTGRGTHLSLFFVVMKGPNDALLQWPFNQKVTLMLLDHNNREHVIDAFRPDVTSSSFQRPVSDMNIASGCPLFCPVSKMEAKNSYVRDDAIFIKAIVDLTGL
For B1, the binding result in assay [1] and in assay [2] was “binds” each time.

The values are drawn from patent US20060134737A1.
